What all share (assay): co-IP
One assay deals with T1, human SYNGAP1 (human) (UniProt Q96PV0).
T1 sequence: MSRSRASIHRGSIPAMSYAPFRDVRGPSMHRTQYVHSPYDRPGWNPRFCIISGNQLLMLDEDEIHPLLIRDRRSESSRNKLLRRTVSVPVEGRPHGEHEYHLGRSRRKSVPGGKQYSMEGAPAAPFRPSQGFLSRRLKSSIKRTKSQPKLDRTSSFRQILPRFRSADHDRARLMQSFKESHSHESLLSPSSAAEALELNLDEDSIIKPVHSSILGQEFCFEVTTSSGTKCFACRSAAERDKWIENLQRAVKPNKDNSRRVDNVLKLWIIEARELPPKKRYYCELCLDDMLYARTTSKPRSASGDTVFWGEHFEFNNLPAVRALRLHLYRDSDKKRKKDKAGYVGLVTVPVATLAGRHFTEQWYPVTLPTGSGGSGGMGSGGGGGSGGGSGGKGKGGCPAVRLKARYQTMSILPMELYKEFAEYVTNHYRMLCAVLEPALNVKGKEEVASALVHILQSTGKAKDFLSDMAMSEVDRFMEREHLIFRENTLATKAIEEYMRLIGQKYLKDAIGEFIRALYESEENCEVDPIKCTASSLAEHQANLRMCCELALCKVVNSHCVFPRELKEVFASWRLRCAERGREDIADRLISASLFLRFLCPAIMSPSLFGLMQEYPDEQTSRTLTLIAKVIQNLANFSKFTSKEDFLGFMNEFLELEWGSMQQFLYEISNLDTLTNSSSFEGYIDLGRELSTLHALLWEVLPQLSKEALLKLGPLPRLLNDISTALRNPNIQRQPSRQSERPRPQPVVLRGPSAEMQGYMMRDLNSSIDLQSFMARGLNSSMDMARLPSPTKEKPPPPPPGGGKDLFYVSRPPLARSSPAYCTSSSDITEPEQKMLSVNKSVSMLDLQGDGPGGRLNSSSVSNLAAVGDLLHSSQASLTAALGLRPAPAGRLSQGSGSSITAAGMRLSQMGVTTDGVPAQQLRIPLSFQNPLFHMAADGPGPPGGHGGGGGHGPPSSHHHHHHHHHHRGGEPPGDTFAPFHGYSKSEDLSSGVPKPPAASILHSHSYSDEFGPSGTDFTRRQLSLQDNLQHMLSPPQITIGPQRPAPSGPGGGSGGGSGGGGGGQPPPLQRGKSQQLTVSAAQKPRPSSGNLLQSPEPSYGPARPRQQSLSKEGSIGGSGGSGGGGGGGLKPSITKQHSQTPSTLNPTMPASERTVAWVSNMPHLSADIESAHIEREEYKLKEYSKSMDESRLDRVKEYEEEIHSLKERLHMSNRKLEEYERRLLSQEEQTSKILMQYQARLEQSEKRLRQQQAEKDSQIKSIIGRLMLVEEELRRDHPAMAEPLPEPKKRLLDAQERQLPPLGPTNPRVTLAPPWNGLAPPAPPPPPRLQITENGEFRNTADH

For assay [1], the target named is T2, SYNGAP1 C2-Trunc (Δ a.a. 848-1343) (human) (UniProt Q96PV0).
T2 sequence: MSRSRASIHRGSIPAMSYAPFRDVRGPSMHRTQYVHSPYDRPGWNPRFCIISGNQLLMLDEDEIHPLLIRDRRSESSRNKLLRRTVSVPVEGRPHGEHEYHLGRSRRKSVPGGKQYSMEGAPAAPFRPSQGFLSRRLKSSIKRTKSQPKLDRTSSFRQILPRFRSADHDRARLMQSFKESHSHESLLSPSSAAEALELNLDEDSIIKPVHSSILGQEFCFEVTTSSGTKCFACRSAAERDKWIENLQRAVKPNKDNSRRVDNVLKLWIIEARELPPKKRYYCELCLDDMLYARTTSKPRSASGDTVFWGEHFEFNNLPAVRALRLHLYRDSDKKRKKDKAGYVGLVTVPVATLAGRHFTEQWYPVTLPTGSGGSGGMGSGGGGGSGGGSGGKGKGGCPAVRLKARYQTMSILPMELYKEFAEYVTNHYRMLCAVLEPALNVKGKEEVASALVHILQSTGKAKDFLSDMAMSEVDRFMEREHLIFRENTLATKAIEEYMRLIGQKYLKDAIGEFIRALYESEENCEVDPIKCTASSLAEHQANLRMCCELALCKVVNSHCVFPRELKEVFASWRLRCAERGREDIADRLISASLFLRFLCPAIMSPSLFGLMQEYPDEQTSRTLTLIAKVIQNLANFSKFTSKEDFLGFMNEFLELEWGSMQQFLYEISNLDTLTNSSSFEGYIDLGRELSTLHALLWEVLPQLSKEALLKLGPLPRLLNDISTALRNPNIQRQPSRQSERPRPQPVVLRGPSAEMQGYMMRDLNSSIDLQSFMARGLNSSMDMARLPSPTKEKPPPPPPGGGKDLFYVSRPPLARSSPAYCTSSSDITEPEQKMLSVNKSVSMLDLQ

Assay [2] deals with T3, SYNGAP1 C3-Trunc (Δ a.a. 1181-1343) (human) (UniProt Q96PV0).
T3 sequence: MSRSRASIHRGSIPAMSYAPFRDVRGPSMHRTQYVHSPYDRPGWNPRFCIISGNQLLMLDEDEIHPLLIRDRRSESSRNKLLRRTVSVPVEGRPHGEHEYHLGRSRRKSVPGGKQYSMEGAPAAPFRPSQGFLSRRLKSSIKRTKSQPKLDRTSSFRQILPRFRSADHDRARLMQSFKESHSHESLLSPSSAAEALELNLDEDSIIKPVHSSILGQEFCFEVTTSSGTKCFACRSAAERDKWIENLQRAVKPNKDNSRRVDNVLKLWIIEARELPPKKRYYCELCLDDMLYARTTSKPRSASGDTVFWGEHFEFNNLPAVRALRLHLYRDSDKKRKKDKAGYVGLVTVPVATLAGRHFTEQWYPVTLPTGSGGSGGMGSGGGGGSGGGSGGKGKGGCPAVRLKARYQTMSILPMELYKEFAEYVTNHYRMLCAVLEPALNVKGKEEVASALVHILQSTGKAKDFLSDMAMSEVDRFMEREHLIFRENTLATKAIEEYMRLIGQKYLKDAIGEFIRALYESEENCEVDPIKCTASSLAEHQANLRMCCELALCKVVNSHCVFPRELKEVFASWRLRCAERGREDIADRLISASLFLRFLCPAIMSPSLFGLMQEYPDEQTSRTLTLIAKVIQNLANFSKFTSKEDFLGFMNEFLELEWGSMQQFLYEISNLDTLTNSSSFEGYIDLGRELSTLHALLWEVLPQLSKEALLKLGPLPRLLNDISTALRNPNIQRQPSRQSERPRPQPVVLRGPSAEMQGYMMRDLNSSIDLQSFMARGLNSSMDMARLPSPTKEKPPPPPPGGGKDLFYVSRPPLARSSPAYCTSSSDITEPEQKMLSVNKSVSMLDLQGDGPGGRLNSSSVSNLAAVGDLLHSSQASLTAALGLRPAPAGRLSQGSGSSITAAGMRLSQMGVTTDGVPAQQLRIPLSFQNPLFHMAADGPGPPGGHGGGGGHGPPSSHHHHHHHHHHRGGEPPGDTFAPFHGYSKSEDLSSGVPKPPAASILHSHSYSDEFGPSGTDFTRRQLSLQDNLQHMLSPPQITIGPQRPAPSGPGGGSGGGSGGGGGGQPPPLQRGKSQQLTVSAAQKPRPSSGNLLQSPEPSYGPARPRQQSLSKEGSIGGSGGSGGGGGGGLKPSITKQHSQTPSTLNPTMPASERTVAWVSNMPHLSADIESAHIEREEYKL

The target of assay [3] is T4, SYNGAP1 N-Trunc (Δ a.a. 2-361) (human) (UniProt Q96PV0).
T4 sequence: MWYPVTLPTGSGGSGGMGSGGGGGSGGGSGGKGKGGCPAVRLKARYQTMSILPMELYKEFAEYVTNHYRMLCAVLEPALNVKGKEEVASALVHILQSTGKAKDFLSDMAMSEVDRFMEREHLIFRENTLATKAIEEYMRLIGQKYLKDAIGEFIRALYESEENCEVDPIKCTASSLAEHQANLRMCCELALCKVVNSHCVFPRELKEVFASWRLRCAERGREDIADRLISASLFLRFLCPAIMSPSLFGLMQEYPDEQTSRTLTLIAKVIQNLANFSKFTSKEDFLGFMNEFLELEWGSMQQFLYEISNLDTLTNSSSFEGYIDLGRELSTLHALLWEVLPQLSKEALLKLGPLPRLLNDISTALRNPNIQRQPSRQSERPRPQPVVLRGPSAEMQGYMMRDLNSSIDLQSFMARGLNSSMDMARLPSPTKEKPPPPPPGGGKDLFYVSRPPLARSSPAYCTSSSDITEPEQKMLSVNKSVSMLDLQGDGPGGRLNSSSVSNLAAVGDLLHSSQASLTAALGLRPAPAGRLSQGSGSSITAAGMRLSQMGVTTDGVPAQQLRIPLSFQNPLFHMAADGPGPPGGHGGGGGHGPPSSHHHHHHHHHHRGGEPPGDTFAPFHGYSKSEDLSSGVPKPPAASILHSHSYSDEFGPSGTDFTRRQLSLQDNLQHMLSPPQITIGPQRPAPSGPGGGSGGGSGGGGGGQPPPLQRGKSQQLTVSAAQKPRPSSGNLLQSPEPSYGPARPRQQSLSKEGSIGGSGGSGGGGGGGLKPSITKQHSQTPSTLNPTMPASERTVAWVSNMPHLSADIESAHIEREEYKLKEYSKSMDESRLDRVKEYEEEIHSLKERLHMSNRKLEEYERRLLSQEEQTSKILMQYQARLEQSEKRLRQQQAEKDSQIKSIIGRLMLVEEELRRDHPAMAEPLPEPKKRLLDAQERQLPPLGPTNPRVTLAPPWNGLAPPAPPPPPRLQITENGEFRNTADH

In assay [4] the target is T5, SYNGAP1 C1-Trunc (Δ a.a. 730-1343) (human) (UniProt Q96PV0).
T5 sequence: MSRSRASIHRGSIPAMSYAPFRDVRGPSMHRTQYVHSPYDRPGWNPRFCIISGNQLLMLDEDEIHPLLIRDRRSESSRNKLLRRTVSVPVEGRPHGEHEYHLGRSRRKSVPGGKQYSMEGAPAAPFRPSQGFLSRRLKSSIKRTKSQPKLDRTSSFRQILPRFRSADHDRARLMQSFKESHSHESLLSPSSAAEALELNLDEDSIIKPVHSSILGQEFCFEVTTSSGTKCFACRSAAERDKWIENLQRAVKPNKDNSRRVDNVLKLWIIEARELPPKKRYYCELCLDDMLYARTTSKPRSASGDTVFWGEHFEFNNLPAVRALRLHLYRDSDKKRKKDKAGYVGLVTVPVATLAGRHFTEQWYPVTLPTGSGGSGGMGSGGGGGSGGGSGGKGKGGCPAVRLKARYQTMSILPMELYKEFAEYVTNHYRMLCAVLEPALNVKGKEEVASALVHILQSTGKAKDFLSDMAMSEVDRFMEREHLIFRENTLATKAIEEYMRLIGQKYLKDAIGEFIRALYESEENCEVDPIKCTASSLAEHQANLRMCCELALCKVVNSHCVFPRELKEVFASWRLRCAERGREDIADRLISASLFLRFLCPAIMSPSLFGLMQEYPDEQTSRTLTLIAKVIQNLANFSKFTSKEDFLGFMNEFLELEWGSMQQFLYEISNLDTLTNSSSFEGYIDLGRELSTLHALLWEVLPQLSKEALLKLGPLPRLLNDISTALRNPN

Results on 1 substance are retold here after paper doi:10.1101/2022.10.06.511211.

These are yes or no findings as the source states them, for the method shown. In cells and extracts the contact can be indirect. For some assays here: Binding can be weak; no strength is given.

As for human ANKS1B, the binding result in the assay with human SYNGAP1 (human) is reported as “binds”; in assay [1] it was “no binding”; in assay [2] it was “binds”; in assay [3], “binds”; in assay [4], “no binding”.
